The text below walks through data of paper PMC5851065.

The chains behind the UniProt entries cited, without tags or fusion partners. Where a name states a change or a piece, a line headed by the entry shows the natural chain unless it says otherwise.
UniProt Q5V9L5: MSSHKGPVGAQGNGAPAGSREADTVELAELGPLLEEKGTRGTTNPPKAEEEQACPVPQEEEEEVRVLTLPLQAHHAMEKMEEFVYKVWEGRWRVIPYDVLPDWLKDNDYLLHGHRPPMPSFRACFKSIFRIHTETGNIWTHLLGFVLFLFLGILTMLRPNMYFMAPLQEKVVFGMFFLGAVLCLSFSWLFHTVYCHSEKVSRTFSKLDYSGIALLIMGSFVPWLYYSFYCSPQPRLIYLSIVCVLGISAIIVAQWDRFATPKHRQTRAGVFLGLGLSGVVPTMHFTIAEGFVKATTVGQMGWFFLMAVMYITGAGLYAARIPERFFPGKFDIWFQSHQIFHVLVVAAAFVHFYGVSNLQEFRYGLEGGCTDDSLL

The target of this assay is T1, mouse adiponectin (mouse (endogenous in mouse colon)) (UniProt Q60994).
T1 sequence: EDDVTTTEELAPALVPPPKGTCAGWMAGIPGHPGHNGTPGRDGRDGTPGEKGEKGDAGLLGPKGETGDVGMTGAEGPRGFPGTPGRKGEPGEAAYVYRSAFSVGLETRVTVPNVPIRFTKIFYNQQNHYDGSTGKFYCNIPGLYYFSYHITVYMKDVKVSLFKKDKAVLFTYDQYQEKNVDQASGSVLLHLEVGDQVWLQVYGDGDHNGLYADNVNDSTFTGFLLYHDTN
As to the kind of experiment: co-IP; IP with anti-ADN antibody (ab22554), immunoblot with anti-flag antibody (F1804) and anti-ADN antibody; colon of WT and pAdipoR1 mice.

Results are given in words; binding and its absence hold for the method and conditions named. In cells and extracts the contact can be indirect. Binding can be weak; no strength is given.

Consider “porcine adiponectin receptor 1 conjugated with flag (from UniProt Q5V9L5)”, for which the binding entry is on record as “binds”.
